The target of test [1] is human plasma kallikrein (human) (UniProt P03952). Kind of test: BIACORE SPR competition: 1 uM EPI-KAL2 with 100 nM pKal over captured X81-B01 or X67-D03 IgG.
The target is the same in test [2]. Kind of test: steady state enzyme kinetics, IgG.

The chains behind the UniProt entries cited, without tags or fusion partners. Where a name states a change or a piece, a line headed by the entry shows the natural chain unless it says otherwise.
UniProt P03952: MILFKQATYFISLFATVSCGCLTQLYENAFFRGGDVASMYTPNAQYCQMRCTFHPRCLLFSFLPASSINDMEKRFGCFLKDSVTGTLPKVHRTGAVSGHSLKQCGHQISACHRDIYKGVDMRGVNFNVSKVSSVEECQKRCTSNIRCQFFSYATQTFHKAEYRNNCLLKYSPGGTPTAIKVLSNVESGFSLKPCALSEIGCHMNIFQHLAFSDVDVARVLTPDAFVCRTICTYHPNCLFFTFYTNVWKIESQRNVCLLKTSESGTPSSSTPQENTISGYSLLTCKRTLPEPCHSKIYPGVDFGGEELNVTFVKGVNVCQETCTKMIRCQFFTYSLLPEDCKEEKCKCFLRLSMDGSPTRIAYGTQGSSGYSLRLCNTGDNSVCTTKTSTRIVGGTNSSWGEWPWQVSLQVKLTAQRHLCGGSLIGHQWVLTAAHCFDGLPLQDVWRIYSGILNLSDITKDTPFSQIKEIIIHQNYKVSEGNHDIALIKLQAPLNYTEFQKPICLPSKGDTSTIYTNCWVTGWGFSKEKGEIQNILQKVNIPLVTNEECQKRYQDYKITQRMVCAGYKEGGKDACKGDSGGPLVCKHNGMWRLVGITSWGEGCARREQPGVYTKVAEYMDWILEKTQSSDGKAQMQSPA

Results are given in words; binding and its absence hold for the method and conditions named. Some binding calls cover weakened binding; strength is not graded here.

B1: EPI-KAL2 (designed binder)
chain: EAMHSFCAFKADDGPCRAAHPRWFFNIFTRQCEEFSYGGCGGNQNRFESLEECKKMCTRD
As for B1, the binding result in test [1] is reported as “binds”.

B2: X67-C03 (antibody, human IgG1, V domains shown)
VH: EVQLLESGGGLVQPGGSLRLSCAASGFTFSAYSMIWVRQAPGKGLEWVSYIRPSGGRTTYADSVKGRFTISRDNSKNTLYLQMNSLRAEDTAVYYCARGGLLLWMRELKSNYFDYWGQGTLVTVSS
VL: DIQMTQSPSSLSAFVGDRVTITCRASQPIDNYLNWYHQKPGKAPKLLIYAASRLQSGVPSRLSGSGFGTDFTLTISSLQPEDFGNYYCQQSYTVPYTFGGGTKVEIR
With B2, the binding entry in test [2] was “binds”.

The values above are taken from patent US20100183625A1, “Treatment of Mucositis with Kallikrein Inhibitors” (Dyax Corp., priority 2009, published 2010).
